PubChem BioAssay AID330 (DTP/NCI, 2004)
The list does not hold the whole screen: it gathers tests that were run many times, whatever their T/C, doses with no T/C, and many T/C values between a quarter and a half above the control. Further doses and runs are listed elsewhere. T/C gives the treated animals as a percentage of the vehicle group. Some doses have a count of surviving animals in place of a T/C: the source files T/C as zero there, which appears to mark a toxic dose or a test without result, not a measured value. Some survivor counts are full or nearly so, which does not show that the dose was tolerated: survival well below the control is almost never listed, so the zero probably covers shortened survival too. Survivors were counted at the toxicity check, usually on the fifth day, unless a day is given; later deaths do not show. Schedule codes are those of the source, taken here to give the interval after Q, in days (D) or hours (H), and the number of doses after X. Some entries were tested several times; their values stand side by side, smallest first. For survival time, this PubChem deposit counts one and a half times the control or more as active, and values a quarter to a half above the control carry no call in these data; other NCI protocols may use other cut-offs. Some T/C values are followed by the survivors on the day toxicity was checked, most often the fifth; where none is given, no animal had died by that day.

Tested on: P388 leukemia ip, CD2F1 mice, survival T/C
Assay: NCI In Vivo Anticancer Drug Screen. Data for tumor model P388 Leukemia (intraperitoneal) in CD2F1 (CDF1) mice
Details: T/C endpoint: median survival time, higher T/C = longer survival
[1] = dose: 240.0 mg/kg/injection, schedule: Q01DX005 (ip), vehicle: saline with Tween-80
[2] = dose: 100.0 mg/kg/injection, schedule: Q01DX009 (ip), vehicle: saline

`CN(C)c1ccc(/C=N/N=C(/C#N)[S][Sn]([S]/C(C#N)=N/N=C/c2ccc(N(C)C)cc2)([c]2ccccc2)[c]2ccccc2)cc1` was tested, and the survivor count (dose: 30.0 mg/kg/injection, schedule: Q01DX005 (ip), vehicle: saline with Tween-80) was 3 of 6, the survivor count (dose: 60.0 mg/kg/injection, schedule: Q01DX005 (ip), vehicle: saline with Tween-80) was 0 of 6 and the survivor count (dose: 120.0 mg/kg/injection, schedule: Q01DX005 (ip), vehicle: saline with Tween-80) was 0 of 6. The survivor count [1] was 0 of 6.
With `CCC1([N+](=O)[O-])CN(C)CC2CCCCN2C1` (stereo not given) the survivor count (dose: 200.0 mg/kg/injection, schedule: Q04DX002 (ip), vehicle: saline) was 2 of 6 and the survivor count (dose: 400.0 mg/kg/injection, schedule: Q04DX002 (ip), vehicle: saline) was 0 of 6.
`COC(=O)c1nc2nnc(NC(=O)Nc3ccc(Cl)cc3)n2c(-c2ccccc2)c1C` was tested, and the survivor count [1] was 6 of 6.
`NC(Cc1ccccc1Cl)c1nn[nH]n1` (stereo not given) was tested, and the survivor count (dose: 100.0 mg/kg/injection, schedule: Q04DX002 (ip), vehicle: saline with Tween-80) was 4 of 6, the survivor count (dose: 200.0 mg/kg/injection, schedule: Q04DX002 (ip), vehicle: saline with Tween-80) was 3 of 6 and the survivor count (dose: 400.0 mg/kg/injection, schedule: Q04DX002 (ip), vehicle: saline with Tween-80) was 0 of 5 and 0 of 6.
`Nc1nc(Br)nc2c1ncn2C1CC(O)C(CO)O1` (stereo not given) was tested, and the T/C (dose: 3.75 mg/kg/injection, schedule: Q03HX009 (ip), vehicle: saline) was 134 % of control, the T/C (dose: 6.0 mg/kg/injection, schedule: Q01DX005 (ip), vehicle: suspension in saline) was 127 % of control and the T/C (dose: 7.5 mg/kg/injection, schedule: Q03HX009 (ip), vehicle: saline with Tween-80) was 141 % of control. The T/C (dose: 7.5 mg/kg/injection, schedule: Q03HX009 (ip), vehicle: saline) was 136 and 149 % of control, the T/C (dose: 12.0 mg/kg/injection, schedule: Q01DX005 (ip), vehicle: suspension in saline) was 127 % of control and the T/C (dose: 15.0 mg/kg/injection, schedule: Q01DX005 (ip), vehicle: saline + alcohol) was 133 % of control. For the same compound, the T/C (dose: 15.0 mg/kg/injection, schedule: Q03HX009 (ip), vehicle: saline with Tween-80) was 141 % of control, the T/C (dose: 24.0 mg/kg/injection, schedule: Q01DX005 (ip), vehicle: suspension in saline) was 128 % of control and the T/C (dose: 30.0 mg/kg/injection, schedule: Q01DX005 (ip), vehicle: saline + alcohol) was 135 % of control. For the same compound, the T/C (dose: 30.0 mg/kg/injection, schedule: Q01DX005 (ip), vehicle: suspension in saline) was 125 % of control, the T/C (dose: 60.0 mg/kg/injection, schedule: Q01DX005 (ip), vehicle: saline + alcohol) was 135 % of control and the T/C (dose: 120.0 mg/kg/injection, schedule: Q01DX005 (ip), vehicle: saline + alcohol) was 134 % of control. For the same compound, the survivor count (dose: 120.0 mg/kg/injection, schedule: Q03HX009 (ip), vehicle: saline) was 1 of 6, the survivor count (dose: 240.0 mg/kg/injection, schedule: Q01DX005 (ip), vehicle: saline + alcohol) was 0 of 6 and the survivor count (dose: 240.0 mg/kg/injection, schedule: Q01DX005 (ip), vehicle: suspension in saline) was 2 of 6. For the same compound, the survivor count (dose: 240.0 mg/kg/injection, schedule: Q03HX009 (ip), vehicle: saline) was 0 of 6.
In the case of `CCC(=O)NC(CC(C)C)C(=O)O` (stereo not given), the survivor count (dose: 50.0 mg/kg/injection, schedule: Q01DX009 (ip), vehicle: saline) is reported as 6 of 6 and the survivor count [2] is reported as 6 of 6.
`COc1ccc2c(Br)c(NC(C)=O)ccc2c1Br` was tested, and the survivor count (dose: 200.0 mg/kg/injection, schedule: Q04DX003 (ip), vehicle: saline) was 6 of 6.
For `CSCc1cc([N+](=O)[O-])ccc1N`, the survivor count (dose: 400.0 mg/kg/injection, schedule: Q01DX001 (ip), vehicle: saline with Tween-80) was 0 of 6.
For `O=S1(=O)CS(=O)(=O)OCCO1`, the T/C (dose: 15.0 mg/kg/injection, schedule: Q01DX005 (ip), vehicle: Klucel (hydroxypropylcellulose) (HPC), evaluated on day 30) was 182 % of control, the T/C (dose: 15.0 mg/kg/injection, schedule: Q01DX005 (ip), vehicle: Klucel (hydroxypropylcellulose) (HPC), evaluated on day 45) was 213 % of control and the T/C (dose: 15.0 mg/kg/injection, schedule: Q01DX005 (ip), vehicle: Klucel (hydroxypropylcellulose) (HPC), evaluated on day 60) was 199 and 206 % of control. The T/C (dose: 22.0 mg/kg/injection, schedule: Q01DX005 (ip), vehicle: Klucel (hydroxypropylcellulose) (HPC), evaluated on day 30) was 283 % of control, the T/C (dose: 22.0 mg/kg/injection, schedule: Q01DX005 (ip), vehicle: Klucel (hydroxypropylcellulose) (HPC), evaluated on day 45) was 297, 339, 412 % of control and the T/C (dose: 22.0 mg/kg/injection, schedule: Q01DX005 (ip), vehicle: Klucel (hydroxypropylcellulose) (HPC), evaluated on day 60) was 256, 281, 566 % of control. The T/C (dose: 33.0 mg/kg/injection, schedule: Q01DX005 (ip), vehicle: Klucel (hydroxypropylcellulose) (HPC), evaluated on day 30) was 283 % of control, the T/C (dose: 33.0 mg/kg/injection, schedule: Q01DX005 (ip), vehicle: Klucel (hydroxypropylcellulose) (HPC), evaluated on day 45) was 378 [9 of 10 alive], 412, 436 % of control and the T/C (dose: 33.0 mg/kg/injection, schedule: Q01DX005 (ip), vehicle: Klucel (hydroxypropylcellulose) (HPC), evaluated on day 60) was 566, 588, 625 % of control. For the same compound, the T/C (dose: 50.0 mg/kg/injection, schedule: Q01DX005 (ip), vehicle: Klucel (hydroxypropylcellulose) (HPC), evaluated on day 30) was 154, 277, 283 % of control [9 of 10 alive], the T/C (dose: 50.0 mg/kg/injection, schedule: Q01DX005 (ip), vehicle: Klucel (hydroxypropylcellulose) (HPC), evaluated on day 45) was 405 [9 of 10 alive], 412, 436 % of control and the T/C (dose: 50.0 mg/kg/injection, schedule: Q01DX005 (ip), vehicle: Klucel (hydroxypropylcellulose) (HPC), evaluated on day 60) was 566, 588, 625 % of control. For the same compound, the T/C (dose: 75.0 mg/kg/injection, schedule: Q01DX005 (ip), vehicle: Klucel (hydroxypropylcellulose) (HPC)) was 138 % of control [7 of 10 alive], the survivor count (dose: 100.0 mg/kg/injection, schedule: Q01DX005 (ip), vehicle: Klucel (hydroxypropylcellulose) (HPC)) was 0 of 5 and 0 of 6 and the survivor count (dose: 200.0 mg/kg/injection, schedule: Q01DX005 (ip), vehicle: Klucel (hydroxypropylcellulose) (HPC)) was 0 of 5.
For `O=[N+]([O-])c1cccn2nnnc12`, the survivor count (dose: 200.0 mg/kg/injection, schedule: Q01DX009 (ip), vehicle: saline with Tween-80) was 6 of 6 and the survivor count (dose: 400.0 mg/kg/injection, schedule: Q01DX009 (ip), vehicle: saline with Tween-80) was 4 of 6.
With `COc1ccc(OC)c(C(=O)C=C(C(F)(F)F)C(F)(F)F)c1` the T/C (dose: 50.0 mg/kg/injection, schedule: Q01DX009 (ip), vehicle: other) was 140 % of control, the T/C (dose: 100.0 mg/kg/injection, schedule: Q04DX003 (ip), vehicle: other) was 127 % of control and the survivor count (dose: 200.0 mg/kg/injection, schedule: Q04DX003 (ip), vehicle: other) was 3 of 6.
With `CCC1(C)N=C(N)Nc2nc3cc(C)c(C)cc3n21` (stereo not given) the survivor count [2] was 6 of 6 and the survivor count (dose: 200.0 mg/kg/injection, schedule: Q01DX009 (ip), vehicle: saline) was 2 of 6.
`CCC[CH2][Pb]([CH2]CCC)([O]C(C)=O)[O]C(C)=O` was tested, and the survivor count (dose: 6.25 mg/kg/injection, schedule: Q04DX003 (ip), vehicle: saline with Tween-80) was 3 of 6, the survivor count (dose: 12.5 mg/kg/injection, schedule: Q04DX003 (ip), vehicle: saline with Tween-80) was 0 of 6 and the survivor count (dose: 25.0 mg/kg/injection, schedule: Q04DX003 (ip), vehicle: saline with Tween-80) was 0 of 6. The survivor count (dose: 100.0 mg/kg/injection, schedule: Q04DX003 (ip), vehicle: saline with Tween-80) was 0 of 6, the survivor count (dose: 200.0 mg/kg/injection, schedule: Q04DX003 (ip), vehicle: saline with Tween-80) was 0 of 6 and the survivor count (dose: 400.0 mg/kg/injection, schedule: Q04DX003 (ip), vehicle: saline with Tween-80) was 0 of 6.
With `CCN(CC)C(=O)c1ccc(C)c2c1Nc1c(c(C)c3oc(=O)c(C)nc3c1C(=O)N(CC)CC)O2` the survivor count (dose: 30.0 mg/kg/injection, schedule: Q01DX005 (ip), vehicle: Klucel (hydroxypropylcellulose) (HPC)) was 6 of 6 and the survivor count (dose: 60.0 mg/kg/injection, schedule: Q01DX005 (ip), vehicle: Klucel (hydroxypropylcellulose) (HPC)) was 6 of 6.
